Reference: US20230056969 (published 2023)
Square brackets hold non-standard residues; d marks the D form. Ends that are not written are not given here. * marks the point of attachment. NMeF = CN[C@@H](Cc1ccccc1)C(=O)O; NMeA = CN[C@@H](C)C(=O)O; Aze = O=C(O)[C@@H]1CCN1; Cbz = O=C(OCc1ccccc1)*; OtBu = CC(C)(C)O*; Sar = CNCC(=O)O

Experiment: general procedure: solution-phase peptide synthesis; T3P; HATU; BEP (with diisopropylethylamine)
Settings: for crude LC-MS purity: LC/MS peak area %; for crude yield: whole synthesis

Row | Substance | crude LC-MS purity (coupling step) | crude yield (from the initial amino acid) | step yield (coupling step) | crude yield (total from the initial amino acid) | step yield (late stage modification step) | crude LC-MS purity (late stage modification step)
1 | Cbz-I[NMeA][Aze][NMeF][Sar]-OtBu | 99.1 area % | total 87% |  |  |  | 
2 | Cbz-Leu-MeLeu-Val-MeGly-MeIle-Ser(tBu)-MePhe-MeVal-Asp(tBu)-piperidine | 97.2 area % |  | yield 98% |  |  | 
3 | Cbz-MeAla-MePhe-Leu-MeLeu-Val-MeGly-MeIle-Ser(tBu)-MePhe-MeVal-Asp(tBu)-piperidine | 95.3 area % |  | yield 96% | total 75.3% |  | 
4 | Cbz-MeLeu-Val-MeGly-MeIle-Ser(tBu)-MePhe-MeVal-Asp(tBu)-piperidine | 96.0 area % |  | yield 98% |  |  | 
5 | Cbz-MePhe-Leu-MeLeu-Val-MeGly-MeIle-Ser(tBu)-MePhe-MeVal-Asp(tBu)-piperidine (SEQ ID NO: 12) | 97.0 area % |  | yield 99% |  |  | 
6 | Cbz-[NMeA][Aze][NMeF][Sar]-OtBu | 99.5 area % |  | yield 91% |  |  | 
7 | Val-MeGly-MeIle-Ser(tBu)-MePhe-MeVal-Asp(tBu)-piperidine |  |  |  |  | yield 98% | 97.9 area %
8 | [NMeA][Aze][NMeF][Sar]-OtBu |  |  |  |  | yield 97% | 99.7 area %
